# The list shows only some results of the screen, not a fair sample: it is rich in T/C values a quarter to a half above the control, in often repeated tests (any T/C) and in doses without a T/C. Other doses and runs of a compound stand elsewhere. T/C gives the treated animals as a percentage of the vehicle group. Some entries give survivors of the animals treated and no T/C: the source holds a T/C of zero for them, seemingly a mark for toxic or unscored doses. Some survivor counts are full or nearly so, which does not show that the dose was tolerated: survival well below the control is almost never listed, so the zero probably covers shortened survival too. Counts of survivors are from the toxicity check (mostly the fifth day) where no day follows; animals may have died later. Schedule codes are those of the source, read here as Q, the interval in days (D) or hours (H), X, the number of doses. Some molecules as drawn cover several salts, stereoisomers or complexes of the source; a dose is that of the sample tested. Where survival is the endpoint, this PubChem deposit counts one and a half times the control or more as active, and values a quarter to a half above the control carry no call in these data; other NCI protocols may use other cut-offs. Some doses were run more than once; the results are listed from low to high.
# Test system: L1210 leukemia ip in BDF1 mice, survival T/C
# Experiment: NCI In Vivo Anticancer Drug Screen. Data for tumor model L1210 Leukemia (intraperitoneal) in B6D2F1 (BDF1) mice
# Conditions: T/C endpoint: mean survival time, higher T/C = longer survival
# [1] = dose: 200.0 mg/kg/injection, schedule: Q01DX001 (ip), vehicle: carboxymethylcellulose (CMC)
# [2] = dose: 400.0 mg/kg/injection, schedule: Q04DX003 (ip), vehicle: saline with Tween-80
# [3] = dose: 100.0 mg/kg/injection, schedule: Q01DX009 (ip), vehicle: Klucel (hydroxypropylcellulose) (HPC)
# [4] = dose: 400.0 mg/kg/injection, schedule: Q04DX003 (ip), vehicle: Klucel (hydroxypropylcellulose) (HPC)
# [5] = dose: 200.0 mg/kg/injection, schedule: Q04DX002 (ip), vehicle: saline with Tween-80
# [6] = dose: 400.0 mg/kg/injection, schedule: Q04DX002 (ip), vehicle: saline with Tween-80
# [7] = dose: 300.0 mg/kg/injection, schedule: Q01DX001 (ip), vehicle: saline
# [8] = dose: 400.0 mg/kg/injection, schedule: Q01DX009 (ip), vehicle: gum acacia
# [9] = dose: 80.0 mg/kg/injection, schedule: Q01DX001 (ip), vehicle: saline
smiles,measurement,setting,value
CC[C@@]1(O)C(=O)OCc2c1cc1n(c2=O)Cc2cc3cc(OC)ccc3nc2-1,T/C,"dose: 1.25 mg/kg/injection, schedule: Q01DX001 (ip), vehicle: saline",137 % of control
same,survivor count,"dose: 3.3 mg/kg/injection, schedule: Q01DX009 (ip), vehicle: saline",6 of 6
same,survivor count,"dose: 30.0 mg/kg/injection, schedule: Q01DX001 (ip), vehicle: saline",2 of 4
same,survivor count,"dose: 45.0 mg/kg/injection, schedule: Q01DX001 (ip), vehicle: saline",1 of 4
same,survivor count,"dose: 65.0 mg/kg/injection, schedule: Q01DX001 (ip), vehicle: saline",2 of 4
same,T/C,"dose: 191.0 micrograms/kg/injection, schedule: Q01DX009 (ip), vehicle: saline",125 and 141 % of control
same,T/C,"dose: 287.0 micrograms/kg/injection, schedule: Q01DX009 (ip), vehicle: saline",131 % of control
same,T/C,"dose: 430.0 micrograms/kg/injection, schedule: Q01DX009 (ip), vehicle: saline",138 % of control
same,T/C,"dose: 646.0 micrograms/kg/injection, schedule: Q01DX009 (ip), vehicle: saline",131 % of control
C=CCC(O)C=C (stereo not drawn),survivor count,[1],1 of 4
same,survivor count,"dose: 400.0 mg/kg/injection, schedule: Q01DX001 (ip), vehicle: carboxymethylcellulose (CMC)",0 of 4
O=C(NC/C=C/Br)Nc1cnc2ccccc2c1,survivor count,"dose: 200.0 mg/kg/injection, schedule: Q04DX003 (ip), vehicle: saline with Tween-80",0 of 6
same,survivor count,[2],0 of 6
CN(C)/N=[N+](\[O-])c1ccccc1,survivor count,[3],4 of 6
same,survivor count,"dose: 200.0 mg/kg/injection, schedule: Q01DX009 (ip), vehicle: Klucel (hydroxypropylcellulose) (HPC)",0 of 6
same,survivor count,"dose: 200.0 mg/kg/injection, schedule: Q04DX003 (ip), vehicle: Klucel (hydroxypropylcellulose) (HPC)",1 of 6
same,survivor count,"dose: 400.0 mg/kg/injection, schedule: Q01DX009 (ip), vehicle: Klucel (hydroxypropylcellulose) (HPC)",0 of 6
same,survivor count,[4],0 of 6
O=C(c1ccc(O)cc1)c1c[nH]c2c(O)ccc(O)c12,survivor count,"dose: 100.0 mg/kg/injection, schedule: Q04DX002 (ip), vehicle: saline + alcohol",3 of 3
CCOc1ccc(NC(=O)C(C(C)N2CCCCC2)N2CCCCC2)cc1 (stereo not drawn),survivor count,"dose: 75.0 mg/kg/injection, schedule: Q01DX009 (ip), vehicle: saline",1 of 6
same,survivor count,"dose: 115.0 mg/kg/injection, schedule: Q01DX009 (ip), vehicle: saline",1 of 6
same,survivor count,"dose: 170.0 mg/kg/injection, schedule: Q01DX009 (ip), vehicle: saline",0 of 6
CCOC(=O)c1cnc(SC)nc1NNc1ccc([N+](=O)[O-])cc1,survivor count,"dose: 400.0 mg/kg/injection, schedule: Q01DX001 (ip), vehicle: saline with Tween-80",6 of 6
Cc1cc(N)c(S)cc1C,survivor count,"dose: 100.0 mg/kg/injection, schedule: Q04DX002 (ip), vehicle: saline with Tween-80",3 of 3
same,survivor count,"dose: 200.0 mg/kg/injection, schedule: Q01DX001 (ip), vehicle: saline",3 of 6
same,survivor count,[5],0 of 3
same,survivor count,"dose: 400.0 mg/kg/injection, schedule: Q01DX001 (ip), vehicle: saline",1 of 6
same,survivor count,[6],0 of 3
CN(C)CCNc1ccccn1,survivor count,[7],0 of 6
COc1cc([N+](=O)[O-])ccc1NC(=O)Nc1cccc(C(F)(F)F)c1,survivor count,[8],6 of 6
C=CCP(c1ccccc1)c1ccccc1,survivor count,"dose: 400.0 mg/kg/injection, schedule: Q04DX002 (ip), vehicle: saline",0 of 3
COc1ccc([N+](=O)[O-])cc1NC(=O)c1ccc2c(c1)C(=O)OC2=O,survivor count,"dose: 25.0 mg/kg/injection, schedule: Q01DX009 (ip), vehicle: gum acacia",6 of 6
same,survivor count,"dose: 100.0 mg/kg/injection, schedule: Q01DX009 (ip), vehicle: gum acacia",6 of 6
same,survivor count,[8],6 of 6
CCCCCCCCCCCCCCCC[N+]1(CCCC)CCOCC1,survivor count,[4],2 of 3
Nc1ncnc2c1c(I)cn2C1OC(CO)C(O)C1O (stereo not drawn),survivor count,[9],0 of 6
C[N+]1(C)C2CC(=O)CC1C1CC12 (stereo not drawn),survivor count,"dose: 400.0 mg/kg/injection, schedule: Q04DX003 (ip), vehicle: saline",4 of 6
NC(N)=NCCCS(=O)(=O)Nc1ccc(Nc2c3ccccc3nc3cc([N+](=O)[O-])ccc23)cc1,T/C,"dose: 0.75 mg/kg/injection, schedule: Q01DX009 (ip), vehicle: water",126 % of control
same,T/C,"dose: 1.5 mg/kg/injection, schedule: Q01DX009 (ip), vehicle: water",133 % of control
same,T/C,"dose: 12.5 mg/kg/injection, schedule: Q04DX003 (ip), vehicle: water",134 % of control
same,T/C,"dose: 25.0 mg/kg/injection, schedule: Q04DX003 (ip), vehicle: water",129 % of control
same,T/C,"dose: 50.0 mg/kg/injection, schedule: Q04DX002 (ip), vehicle: saline with Tween-80",135 % of control
same,survivor count,[6],0 of 3
O=C(O)C1CCC(C(=O)O)CC1 (stereo not drawn),survivor count,[1],4 of 4
CN1CCC=Cc2ccccc21,survivor count,"dose: 200.0 mg/kg/injection, schedule: Q01DX009 (ip), vehicle: saline",5 of 6
same,survivor count,"dose: 400.0 mg/kg/injection, schedule: Q01DX009 (ip), vehicle: saline",0 of 6
CN(CC(=O)O)C(=O)c1ccccc1,survivor count,[7],1 of 6
CCN(CC)C(=S)SSC(=S)N(CC)CC,survivor count,[3],6 of 6
CCCCCCCC[n+]1cccc(C(N)=O)c1,survivor count,[2],0 of 6
COC(=O)CC(=O)c1cc(C(C)(C)C)cc(C(C)(C)C)c1,survivor count,"dose: 400.0 mg/kg/injection, schedule: Q04DX003 (ip), vehicle: DMSO",5 of 6
Cc1ccnc2c3c4c(cc12)c(C)cc(=O)n4CO3,T/C,"dose: 75.0 mg/kg/injection, schedule: Q01DX009 (ip), vehicle: Klucel (hydroxypropylcellulose) (HPC)",125 % of control
same,survivor count,"dose: 300.0 mg/kg/injection, schedule: Q01DX009 (ip), vehicle: Klucel (hydroxypropylcellulose) (HPC)",2 of 6
CC(C)(C)c1ccc2oc(-c3ccc(-c4nc5cc(C(C)(C)C)ccc5o4)s3)nc2c1,survivor count,"dose: 400.0 mg/kg/injection, schedule: Q04DX003 (ip), vehicle: gum acacia",6 of 6
CCC1(/C(C)=C/C(C)C)C(=O)NC(=O)NC1=O,survivor count,"dose: 20.0 mg/kg/injection, schedule: Q01DX001 (ip), vehicle: saline",2 of 6
same,survivor count,"dose: 40.0 mg/kg/injection, schedule: Q01DX001 (ip), vehicle: saline",0 of 6
same,survivor count,[9],0 of 6
O=C(CCN1CCCC1)c1ccc2ccccc2c1,survivor count,[5],0 of 3
same,survivor count,[6],0 of 3

# Source: PubChem BioAssay AID248 (DTP/NCI, 2004)
